Assay results published in the supplement of paper PMC10849652.
The list shows a part of the results.

Amino acid sequences for entries named in this document (tags omitted). A change or cut given only in a name is not applied to a line headed by its entry.
UniProt Q96QG7: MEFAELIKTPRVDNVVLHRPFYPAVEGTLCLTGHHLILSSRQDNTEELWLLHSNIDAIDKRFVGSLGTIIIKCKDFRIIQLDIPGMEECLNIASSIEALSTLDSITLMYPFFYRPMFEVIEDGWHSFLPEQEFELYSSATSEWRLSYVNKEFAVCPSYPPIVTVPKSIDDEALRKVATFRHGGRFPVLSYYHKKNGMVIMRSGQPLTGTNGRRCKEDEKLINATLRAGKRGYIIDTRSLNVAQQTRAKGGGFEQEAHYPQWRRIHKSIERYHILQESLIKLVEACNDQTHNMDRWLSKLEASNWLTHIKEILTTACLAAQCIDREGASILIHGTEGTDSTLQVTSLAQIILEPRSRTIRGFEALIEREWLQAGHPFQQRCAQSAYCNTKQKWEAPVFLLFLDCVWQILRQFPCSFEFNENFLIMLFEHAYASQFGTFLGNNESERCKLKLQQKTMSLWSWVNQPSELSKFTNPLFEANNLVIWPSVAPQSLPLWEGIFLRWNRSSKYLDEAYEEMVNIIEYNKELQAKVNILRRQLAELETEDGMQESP
UniProt P03886, whole entry, looked up: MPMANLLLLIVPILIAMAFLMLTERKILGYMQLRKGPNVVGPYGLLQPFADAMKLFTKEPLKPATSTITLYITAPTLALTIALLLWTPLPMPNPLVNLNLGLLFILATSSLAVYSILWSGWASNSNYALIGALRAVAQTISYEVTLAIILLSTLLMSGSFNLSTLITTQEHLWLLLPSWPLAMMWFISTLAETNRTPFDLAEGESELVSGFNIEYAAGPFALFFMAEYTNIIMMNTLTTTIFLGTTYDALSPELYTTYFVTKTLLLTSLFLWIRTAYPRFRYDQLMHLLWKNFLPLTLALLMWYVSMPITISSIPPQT
UniProt P52701: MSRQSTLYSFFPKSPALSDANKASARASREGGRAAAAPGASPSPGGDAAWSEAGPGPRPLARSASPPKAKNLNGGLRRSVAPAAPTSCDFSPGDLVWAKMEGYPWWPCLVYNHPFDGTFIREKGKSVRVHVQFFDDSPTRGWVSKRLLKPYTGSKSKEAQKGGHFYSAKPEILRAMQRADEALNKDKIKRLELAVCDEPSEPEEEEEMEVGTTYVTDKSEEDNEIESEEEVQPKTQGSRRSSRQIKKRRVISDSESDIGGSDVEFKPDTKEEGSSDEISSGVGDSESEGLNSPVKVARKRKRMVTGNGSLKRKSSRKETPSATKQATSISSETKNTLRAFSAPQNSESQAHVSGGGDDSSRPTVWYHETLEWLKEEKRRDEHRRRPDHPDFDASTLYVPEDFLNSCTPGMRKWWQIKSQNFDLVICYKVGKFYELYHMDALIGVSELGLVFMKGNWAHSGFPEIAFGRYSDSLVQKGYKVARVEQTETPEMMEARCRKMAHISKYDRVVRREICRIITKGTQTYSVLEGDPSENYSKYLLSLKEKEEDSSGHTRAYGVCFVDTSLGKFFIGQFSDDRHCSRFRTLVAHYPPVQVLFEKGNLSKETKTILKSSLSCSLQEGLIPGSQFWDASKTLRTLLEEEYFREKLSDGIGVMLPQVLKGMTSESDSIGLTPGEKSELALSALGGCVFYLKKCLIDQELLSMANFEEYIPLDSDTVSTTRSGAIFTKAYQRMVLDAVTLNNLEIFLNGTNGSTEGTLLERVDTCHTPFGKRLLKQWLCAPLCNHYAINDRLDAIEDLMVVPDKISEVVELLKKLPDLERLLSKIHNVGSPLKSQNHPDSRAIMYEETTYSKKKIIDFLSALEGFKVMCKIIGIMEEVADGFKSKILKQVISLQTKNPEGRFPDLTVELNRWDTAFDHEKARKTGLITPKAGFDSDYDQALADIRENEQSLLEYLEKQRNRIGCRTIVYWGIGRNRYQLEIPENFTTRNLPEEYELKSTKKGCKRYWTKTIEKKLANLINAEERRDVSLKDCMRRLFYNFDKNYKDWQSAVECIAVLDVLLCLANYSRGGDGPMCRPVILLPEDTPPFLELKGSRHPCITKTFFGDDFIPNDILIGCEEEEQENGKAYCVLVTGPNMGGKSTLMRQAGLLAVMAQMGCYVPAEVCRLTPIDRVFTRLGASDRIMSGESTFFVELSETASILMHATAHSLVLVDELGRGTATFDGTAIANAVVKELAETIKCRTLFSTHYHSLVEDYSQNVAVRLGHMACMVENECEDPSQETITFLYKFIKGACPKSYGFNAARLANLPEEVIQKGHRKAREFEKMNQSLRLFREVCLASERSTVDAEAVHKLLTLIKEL
UniProt Q9Y3D2: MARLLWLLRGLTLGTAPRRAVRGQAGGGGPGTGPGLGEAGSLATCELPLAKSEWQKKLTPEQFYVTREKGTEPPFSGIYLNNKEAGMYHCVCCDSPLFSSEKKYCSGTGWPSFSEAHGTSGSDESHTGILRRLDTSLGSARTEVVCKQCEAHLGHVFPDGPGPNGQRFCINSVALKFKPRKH
UniProt Q96DH6: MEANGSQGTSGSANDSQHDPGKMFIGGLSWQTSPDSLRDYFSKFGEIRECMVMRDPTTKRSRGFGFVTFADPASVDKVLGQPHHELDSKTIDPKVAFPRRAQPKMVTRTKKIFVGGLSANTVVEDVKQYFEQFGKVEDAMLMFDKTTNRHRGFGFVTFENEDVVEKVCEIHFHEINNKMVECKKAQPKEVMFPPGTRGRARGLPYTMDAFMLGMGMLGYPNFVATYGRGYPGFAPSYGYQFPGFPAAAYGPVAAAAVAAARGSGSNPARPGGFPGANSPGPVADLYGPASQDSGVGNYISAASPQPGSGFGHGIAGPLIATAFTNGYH
UniProt P82909: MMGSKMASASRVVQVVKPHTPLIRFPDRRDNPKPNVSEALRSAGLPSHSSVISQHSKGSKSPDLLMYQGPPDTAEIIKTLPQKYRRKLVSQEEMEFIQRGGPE
UniProt Q99707: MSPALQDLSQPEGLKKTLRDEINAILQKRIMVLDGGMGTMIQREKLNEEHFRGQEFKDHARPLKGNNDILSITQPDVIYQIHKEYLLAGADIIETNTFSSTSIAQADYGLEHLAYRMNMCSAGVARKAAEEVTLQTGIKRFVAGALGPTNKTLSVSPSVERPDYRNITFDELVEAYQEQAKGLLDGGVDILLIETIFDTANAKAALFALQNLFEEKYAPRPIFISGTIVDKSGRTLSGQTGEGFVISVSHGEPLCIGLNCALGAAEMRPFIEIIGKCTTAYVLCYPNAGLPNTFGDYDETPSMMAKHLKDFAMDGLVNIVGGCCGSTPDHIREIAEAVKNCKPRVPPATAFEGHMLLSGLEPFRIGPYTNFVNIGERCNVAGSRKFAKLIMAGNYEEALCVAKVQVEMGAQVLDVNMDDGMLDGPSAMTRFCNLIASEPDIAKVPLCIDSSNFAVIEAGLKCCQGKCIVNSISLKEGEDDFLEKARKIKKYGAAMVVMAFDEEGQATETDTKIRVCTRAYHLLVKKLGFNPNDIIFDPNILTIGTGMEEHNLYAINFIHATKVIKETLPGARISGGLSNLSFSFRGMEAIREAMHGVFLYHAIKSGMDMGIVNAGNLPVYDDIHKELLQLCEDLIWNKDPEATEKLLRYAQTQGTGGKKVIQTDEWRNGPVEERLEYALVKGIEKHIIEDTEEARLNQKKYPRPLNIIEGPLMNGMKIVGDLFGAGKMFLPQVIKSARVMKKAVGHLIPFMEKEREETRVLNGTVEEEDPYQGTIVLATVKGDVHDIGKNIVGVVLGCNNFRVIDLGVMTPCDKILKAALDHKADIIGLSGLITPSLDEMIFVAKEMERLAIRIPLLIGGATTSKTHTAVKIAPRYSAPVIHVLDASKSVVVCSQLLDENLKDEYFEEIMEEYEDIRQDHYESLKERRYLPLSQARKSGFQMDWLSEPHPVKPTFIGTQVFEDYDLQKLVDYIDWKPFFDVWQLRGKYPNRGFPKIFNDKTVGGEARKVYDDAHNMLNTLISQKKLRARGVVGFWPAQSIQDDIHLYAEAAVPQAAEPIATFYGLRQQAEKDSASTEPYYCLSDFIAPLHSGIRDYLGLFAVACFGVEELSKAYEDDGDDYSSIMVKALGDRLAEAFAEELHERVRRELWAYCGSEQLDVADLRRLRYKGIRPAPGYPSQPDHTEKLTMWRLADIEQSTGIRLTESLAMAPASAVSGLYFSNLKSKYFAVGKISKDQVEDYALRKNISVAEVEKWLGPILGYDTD
UniProt P13995: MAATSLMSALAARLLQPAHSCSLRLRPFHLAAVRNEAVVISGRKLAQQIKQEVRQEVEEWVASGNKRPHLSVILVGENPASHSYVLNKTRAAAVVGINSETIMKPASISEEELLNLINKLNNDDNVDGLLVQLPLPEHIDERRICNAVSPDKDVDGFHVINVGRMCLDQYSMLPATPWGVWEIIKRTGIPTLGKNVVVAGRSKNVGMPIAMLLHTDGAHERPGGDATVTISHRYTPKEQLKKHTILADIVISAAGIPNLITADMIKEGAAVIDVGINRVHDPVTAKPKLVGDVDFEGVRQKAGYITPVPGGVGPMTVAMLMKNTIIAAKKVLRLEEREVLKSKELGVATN
UniProt Q6P444: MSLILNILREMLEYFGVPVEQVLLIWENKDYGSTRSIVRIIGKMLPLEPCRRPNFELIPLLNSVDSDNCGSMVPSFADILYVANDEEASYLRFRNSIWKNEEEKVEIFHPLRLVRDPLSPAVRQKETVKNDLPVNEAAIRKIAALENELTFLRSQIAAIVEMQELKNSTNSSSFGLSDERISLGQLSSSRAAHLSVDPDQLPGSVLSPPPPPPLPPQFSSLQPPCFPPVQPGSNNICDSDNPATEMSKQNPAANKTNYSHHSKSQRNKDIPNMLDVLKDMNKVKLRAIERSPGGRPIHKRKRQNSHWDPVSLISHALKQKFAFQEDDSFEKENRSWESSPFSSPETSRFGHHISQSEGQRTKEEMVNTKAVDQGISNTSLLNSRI
UniProt P00846: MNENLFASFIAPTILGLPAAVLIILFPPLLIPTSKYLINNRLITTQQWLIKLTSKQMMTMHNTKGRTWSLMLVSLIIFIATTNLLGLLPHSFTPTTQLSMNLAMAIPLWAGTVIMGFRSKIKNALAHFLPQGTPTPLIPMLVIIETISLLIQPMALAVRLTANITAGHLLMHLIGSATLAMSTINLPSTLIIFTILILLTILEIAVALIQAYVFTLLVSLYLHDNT
UniProt O94776: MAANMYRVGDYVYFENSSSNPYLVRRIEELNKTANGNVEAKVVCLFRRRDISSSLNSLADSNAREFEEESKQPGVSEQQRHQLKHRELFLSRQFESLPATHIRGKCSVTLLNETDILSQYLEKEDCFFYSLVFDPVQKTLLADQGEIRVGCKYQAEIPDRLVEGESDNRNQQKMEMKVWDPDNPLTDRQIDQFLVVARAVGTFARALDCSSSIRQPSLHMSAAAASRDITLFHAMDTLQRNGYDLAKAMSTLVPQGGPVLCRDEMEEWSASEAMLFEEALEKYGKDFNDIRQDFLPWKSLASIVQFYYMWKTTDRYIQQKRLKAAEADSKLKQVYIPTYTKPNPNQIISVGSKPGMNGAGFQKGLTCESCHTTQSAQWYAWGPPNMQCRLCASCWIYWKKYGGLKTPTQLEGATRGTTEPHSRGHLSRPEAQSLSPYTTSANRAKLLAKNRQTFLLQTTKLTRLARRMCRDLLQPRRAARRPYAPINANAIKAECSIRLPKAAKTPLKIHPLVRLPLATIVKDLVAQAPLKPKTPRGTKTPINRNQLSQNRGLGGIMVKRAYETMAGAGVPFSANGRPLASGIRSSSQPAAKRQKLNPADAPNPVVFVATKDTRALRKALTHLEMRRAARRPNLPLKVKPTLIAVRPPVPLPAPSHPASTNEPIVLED
UniProt Q9NZJ7, whole entry, looked up: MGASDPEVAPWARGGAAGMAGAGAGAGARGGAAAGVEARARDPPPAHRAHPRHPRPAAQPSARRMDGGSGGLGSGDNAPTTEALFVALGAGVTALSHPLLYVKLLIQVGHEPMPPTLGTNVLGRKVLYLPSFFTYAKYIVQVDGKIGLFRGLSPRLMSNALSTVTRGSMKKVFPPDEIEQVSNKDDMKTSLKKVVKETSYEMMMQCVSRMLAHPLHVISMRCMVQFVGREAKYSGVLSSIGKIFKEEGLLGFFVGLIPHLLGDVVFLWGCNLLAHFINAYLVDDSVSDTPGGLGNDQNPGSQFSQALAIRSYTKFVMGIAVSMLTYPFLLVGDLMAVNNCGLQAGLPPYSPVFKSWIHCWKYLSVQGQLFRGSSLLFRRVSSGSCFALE
UniProt Q13505: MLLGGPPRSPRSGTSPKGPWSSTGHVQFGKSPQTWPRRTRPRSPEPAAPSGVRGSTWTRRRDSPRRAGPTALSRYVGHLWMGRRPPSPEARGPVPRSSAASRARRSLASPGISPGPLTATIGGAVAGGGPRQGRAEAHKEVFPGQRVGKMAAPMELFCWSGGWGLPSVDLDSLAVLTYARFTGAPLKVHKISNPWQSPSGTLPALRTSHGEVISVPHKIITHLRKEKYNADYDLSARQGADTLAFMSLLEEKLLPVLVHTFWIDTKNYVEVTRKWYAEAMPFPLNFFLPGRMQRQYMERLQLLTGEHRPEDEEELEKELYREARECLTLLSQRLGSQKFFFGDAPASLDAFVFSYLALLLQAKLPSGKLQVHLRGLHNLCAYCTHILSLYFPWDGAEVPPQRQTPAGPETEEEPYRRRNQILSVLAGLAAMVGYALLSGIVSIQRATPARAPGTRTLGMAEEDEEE

compound: COc1cc(Nc2ncc3c(n2)-c2ccc(Cl)cc2C(c2c(F)cccc2OC)=NC3)ccc1C(=O)O [alisertib]; test: log2 fold change, soluble protein after heating vs DMSO (PISA); higher = thermal stabilisation; K562 lysate, 10 uM; active = over 0.2 and 3.5 SD of the protein, either way, in both replicates (recomputed)
In short: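 Log-two fold change in thermal stability relative to solvent controls is reported from duplicates. For each sample, crude K562 extract from dounce-homogenised pellets in PBS pH 7.4 with 1 mM MgCl2, at 1 mg/mL protein, was treated with 10 μM compound for 30 min. Aliquots heated for 3 min across 48°C-58°C were pooled, brought to 0.5% NP-40 at 4°C and cleared at 21,000xg for 90 min. The supernatant was quantified by TMTpro 16plex LC-MS/MS with channel sums equalised.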

log2 fold change, inactive:
MRPL4 (UniProt Q9BYD3) 0.027
MRPS9 (UniProt P82933) -0.021
MTMR9 (UniProt Q96QG7) -0.025
MRPL28 (UniProt Q13084) 0.045
MRPL41 (UniProt Q8IXM3) -0.013
MRPS22 (UniProt P82650) -0.067
MRPL45 (UniProt Q9BRJ2) 0.017
MRPS18A isoform 2 (UniProt Q9NVS2) 0.041
MRPL50 (UniProt Q8N5N7) -0.022
MTIF2 (UniProt P46199) -0.008
MRS2 (UniProt Q9HD23) -0.022
MT-ND1 (UniProt P03886) 0.032
MRPS30 (UniProt Q9NP92) 0.05
MTM1 (UniProt Q13496) 0
MRPS18B (UniProt Q9Y676) 0.017
MRPL32 (UniProt Q9BYC8) -0.05
MRPS5 (UniProt P82675) 0.007
MSH6 (UniProt P52701) 0.003
MSRB2 (UniProt Q9Y3D2) -0.017
MTA1 (UniProt Q13330) -0.026
MSI2 (UniProt Q96DH6) 0.026
MRPL9 (UniProt Q9BYD2) 0.023
MRPS10 (UniProt P82664) 0.101
MRPS36 (UniProt P82909) -0.106
MSN (UniProt P26038) 0.014
MRPS28 (UniProt Q9Y2Q9) -0.012
MTR (UniProt Q99707) 0.004
MTHFD2 (UniProt P13995) 0.031
MRPS31 (UniProt Q92665) 0.007
MTFR2 (UniProt Q6P444) -0.034
MRPL40 (UniProt Q9NQ50) 0.023
MRPL54 (UniProt Q6P161) 0.006
MRPL44 (UniProt Q9H9J2) -0.006
MT-ATP6 (UniProt P00846) -0.069
MT-CO1 (UniProt P00395) 0.039
MRPL58 (UniProt Q14197) -0.021
MTA2 (UniProt O94776) 0.012
MTCH1 (UniProt Q9NZJ7) -0.012
MTX1 (UniProt Q13505) -0.015

Pulled one by one from the entries so far (three):
log2 fold change, inactive:
MRPS18B (UniProt Q9Y676) 0.017
MRPS22 (UniProt P82650) -0.067
MTHFD2 (UniProt P13995) 0.031
